Screen size: about 320,000 compounds; about 22,000 (6.9%) were called active. The shares of active, inactive and inconclusive entries below differ from those in the screen. Calls come from the whole dose curve; as a rule, active = well fitted inhibition curve with a large enough effect; inconclusive = small, poorly fitted or top-dose-only effect, or another doubt; inactive = no such curve, though single readings can be large or run the other way. Where the call is inconclusive, the potency comes from a doubtful curve fit.
experiment: Primary qHTS for delayed death inhibitors of the malarial parasite plastid, 96 hour incubation; conditions: P. falciparum luciferase reporter growth; series mostly up to 28.7 µM
Procedure, shortened: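 96 h incubation, 37 C, 5% CO2, of luciferase-reporter P. falciparum-infected RBCs (2% hematocrit, 0.05% parasitemia final) with test compounds; endpoint luminescence.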
Potency is the fitted concentration of half-maximal effect.

| Structure (SMILES) | Potency |
| --- | --- |
| COc1ccc(-c2nnn(CC(=O)N(Cc3ccccc3Cl)C(C(=O)NCC3CCCO3)c3ccco3)n2)cc1OC (stereo not given) | inactive |
| Cc1cc(C)cc(NC(=O)C2CCCN(S(=O)(=O)c3c(C)noc3C)C2)c1 (stereo not given) | inconclusive: 18.5 µM [inhibitor, single point] |
| Cc1cccc(N2CCN(C(=O)c3cccc(S(=O)(=O)N4CCc5ccccc5C4)c3)CC2C)c1 (stereo not given) | active: 11.7 µM |
| CCOc1ccc(CN2CCNC(=O)C2CC(=O)NCCCOc2cccnc2)cc1 (stereo not given) | inconclusive: 18.5 µM [inhibitor, single point] |
| N#Cc1c(N2CCOCC2)nsc1-c1ccccc1 | inactive |
| COc1cccc(CNC(=O)C2CCN(S(=O)(=O)N3CCCCC3)CC2)c1 | inconclusive: 16.5 µM [inhibitor, single point] |
| Cc1cccc(N2CSC3=C(C#N)C(c4ccc(C)o4)CC(=O)N3C2)c1 (stereo not given) | active: 10.4 µM |
| Cc1cccc2nc(CSc3ccc(Cl)cc3)cn12 | inconclusive: 2.08 µM [inhibitor, partial curve, poor fit] |
| CCOc1c(CNCc2ccc(C(=O)O)cc2)cccc1OC | inconclusive: 1.04 µM [inhibitor, partial curve] |
| CCCn1c(O)c2ccc(C(=O)N=NC(=O)c3cccnc3)cc2c1O | inactive |
| O=C(Cc1ccccc1)N1CCC(C(=O)N2CCN(c3ccc(F)cc3)CC2)CC1 | inconclusive: 0.928 µM [inhibitor, single point] |
| COC(=O)C1=C(c2ccc(Cl)c(C(F)(F)F)c2)C[C@@H]2CC[C@H]1N2C(=O)NCc1ccc2c(c1)OCO2 | inactive |
| O=C(Nc1cccc(S(=O)(=O)N2CCOCC2)c1)[C@@H]1CCCN1S(=O)(=O)c1ccc(Cl)cc1 | active: 1.85 µM |
| CC(n1cnnn1)C12CC3CC(CC(C3)C1)C2 (stereo not given) | active: 1.65 µM |
| CNS(=O)(=O)c1ccc(CCC(=O)N2CCN(c3ccccc3OC)CC2)cc1 | inconclusive: 18.5 µM [inhibitor, single point] |
| O=C(/C=C/c1ccc(F)cc1)Nc1ccc2[nH]c(=O)[nH]c2c1 | inactive |
| CSc1nsc(SC)c1C(=O)N1CCN(S(=O)(=O)c2ccc(C)cc2)C1C(C)C (stereo not given) | inconclusive: 1.04 µM [inhibitor, partial curve, poor fit] |
| CCOC(=O)c1c(-c2ccccc2)n(C)c2ccc(O)cc12 | inconclusive: 1.47 µM [inhibitor, partial curve, poor fit] |
| COc1ccc(Br)cc1CN1CCN(CCO)CC1 | inactive |
| CCOC(=O)CN1C(=O)NC(C)(c2ccc(OC(F)F)cc2)C1=O (stereo not given) | inactive |
| CCCCCN(C(=O)CCC(=O)OCC(=O)N(CC)C1CCCCC1)c1c(N)n(CCCC)c(=O)[nH]c1=O | inactive |
| Cc1ccc(C(=O)Oc2cccnc2)cc1[N+](=O)[O-] | inconclusive: 2.08 µM [inhibitor, single point] |

| Structure (SMILES) | Potency |
| --- | --- |
| C=CCN(Cc1nc(-c2ccccc2)no1)C(=O)c1ccco1 | inactive |
| NCCCC[C@H]1CNC(=S)N1CCc1cc(C(F)(F)F)cc(C(F)(F)F)c1 | inconclusive: 8.28 µM [inhibitor, partial curve] |
| CCOC(=O)C1=C(C)NC(=O)NC1c1ccc([N+](=O)[O-])o1 (stereo not given) | inactive |
| COc1ccc(C(=O)NC(=S)NNC(=O)c2cnccn2)cc1OC | inconclusive: 13.1 µM [inhibitor, single point] |
| CCCCN1CC2([N+](=O)[O-])C=CC(=O)C([N+](=O)[O-])(C1)C2CC(=O)c1ccccc1 (stereo not given) | inactive |
| Cc1ccc(C2=Nc3ccccc3SC(c3cccc([N+](=O)[O-])c3)C2)cc1 (stereo not given) | inconclusive: 5.22 µM [inhibitor, partial curve, poor fit] |
| Cc1ccc(NC(=O)Cn2c(=O)oc3cc(S(=O)(=O)N4CCC(C)CC4)ccc32)cc1C | inactive |
| O=S(=O)(NCCCCCNS(=O)(=O)c1ccccc1)c1ccccc1 | inconclusive: 0.0738 µM [inhibitor, full curve, poor fit] |
| COc1ccc(CC(=O)Oc2ccc(C(C)(C)C)cc2)cc1S(=O)(=O)N1CCOCC1 | inactive |
| NC(=O)SCC(=O)Nc1ccc(Cl)cc1 | inconclusive: 1.04 µM [inhibitor, partial curve, poor fit] |
| CN(C(=O)c1ccc(NC(=O)Cc2cccc(NC(=O)C3CCCN(C(=O)C4CCCCC4)C3)c2)cc1)C1CCCC1 (stereo not given) | inconclusive: 9.28 µM [inhibitor, partial curve, poor fit] |
| CC12CN3CC(C)(CN(C1)C3c1ccc(Br)cc1O)C2 (stereo not given) | inconclusive: 1.04 µM [inhibitor, partial curve, poor fit] |
| CC(C)CCN(C(=O)Cc1ccc(Cl)c(Cl)c1)c1c(N)n(Cc2ccccc2)c(=O)[nH]c1=O | inconclusive: 16.5 µM [inhibitor, partial curve, poor fit] |
| COc1cccc(CNC(=O)CSc2nnc3c(n2)[nH]c2ccc(F)cc23)c1 | inconclusive: 9.28 µM [inhibitor, partial curve, poor fit] |
| Cc1n[nH]c(=O)nc1NCc1ccc(Cl)cc1 | inactive |
| N#Cc1c(-c2ccccc2Cl)noc1/C=C/Nc1ccc(C(=O)O)cc1 | inactive |
| Cn1nc(C(=O)OCC(=O)Nc2ccccc2[N+](=O)[O-])c2ccccc2c1=O | inconclusive: 8.28 µM [inhibitor, single point] |
| COc1cc(OC)cc(-n2nnnc2SCC(=O)NCc2ccc3c(c2)OCO3)c1 | inconclusive: 10.4 µM [inhibitor, single point] |
| CCc1ccc(NC2=CC(=O)C(=O)c3ccccc32)cc1 | active: 0.0738 µM |
| O=C(CSc1nc2ccccc2c(=O)n1CCCN1CCOCC1)c1c[nH]c2ccccc12 | inconclusive: 1.65 µM [inhibitor, partial curve, poor fit] |
| O=C(c1c(Cl)nc2sccn12)N1CCCc2ccccc21 | inconclusive: 13.1 µM [inhibitor, partial curve, poor fit] |
| O=C(Nc1nc2c(s1)CCCC2)c1ccc2ncsc2c1 | inconclusive: 18.5 µM [inhibitor, partial curve, poor fit] |

2 entries from above, comma-delimited.
Structure (SMILES),Potency
CCCn1c(O)c2ccc(C(=O)N=NC(=O)c3cccnc3)cc2c1O,inactive
O=C(Cc1ccccc1)N1CCC(C(=O)N2CCN(c3ccc(F)cc3)CC2)CC1,"inconclusive: 0.928 µM [inhibitor, single point]"

Pulled by compound from above (2):

| Structure (SMILES) | Potency |
| --- | --- |
| COc1cccc(CNC(=O)CSc2nnc3c(n2)[nH]c2ccc(F)cc23)c1 | inconclusive: 9.28 µM [inhibitor, partial curve, poor fit] |
| O=S(=O)(NCCCCCNS(=O)(=O)c1ccccc1)c1ccccc1 | inconclusive: 0.0738 µM [inhibitor, full curve, poor fit] |

More results

| Structure (SMILES) | Potency |
| --- | --- |
| CCOC(=O)Nc1cc(Br)c2c(c1)OCCO2 | inconclusive: 2.33 µM [inhibitor, full curve] |
| CCNc1nc(NCC)n2c(SCC(=O)Nc3ccc(CC)cc3)nnc2n1 | inconclusive: 9.28 µM [inhibitor, partial curve] |
| C=CCn1c(SCC(=O)NCC2CCCO2)nnc1-c1ccccc1 (stereo not given) | inactive |
| CCc1noc(C)c1C(=O)N(CCCOC)c1c(N)n(Cc2ccccc2)c(=O)[nH]c1=O | inconclusive: 18.5 µM [inhibitor, single point] |
| COc1ccc(NC(=O)CN2c3cccc4cccc(c34)S2(=O)=O)cc1 | inconclusive: 16.5 µM [inhibitor, single point] |
| Cc1c(N/N=C(\C#N)C(=O)c2ccccc2)c(=O)n(-c2ccccc2)n1C | inconclusive: 18.5 µM [inhibitor, single point] |
| COc1ccc(CCNc2oc(COc3ccc(Br)cc3)nc2C#N)cc1OC | inconclusive: 18.5 µM [inhibitor, single point] |
| C/C(=N/OC(=O)c1ccc(Br)cc1)c1ccc(C)cc1 | inconclusive: 14.7 µM [inhibitor, single point] |
| CCCNS(=O)(=O)c1ccc(CCC(=O)Nc2ccc3c(c2)OCCO3)cc1 | inconclusive: 0.657 µM [inhibitor, partial curve, poor fit] |
| O=C(Nc1cnn(Cc2ccc(Cl)cc2Cl)c1)c1cc(-c2cccs2)on1 | inconclusive: 0.0586 µM [inhibitor, full curve] |
| CCCCSc1nnc([C@@H](NC(=O)OC(C)(C)C)C(C)C)o1 | inconclusive: 9.28 µM [inhibitor, partial curve, poor fit] |
| COc1cc(NC(=O)c2c3c(nc4ccccc24)CCC3)cc(OC)c1 | inconclusive: 1.31 µM [inhibitor, partial curve, poor fit] |
| O=C(NCC(=O)N1CCN(c2ncc(C(F)(F)F)cc2Cl)CC1)c1ccc(Br)o1 | inconclusive: 18.5 µM [inhibitor, single point] |
| CCCCn1c(N)c(N(CCC(C)C)C(=O)CCN2C(=O)C3CC=CCC3C2=O)c(=O)[nH]c1=O (stereo not given) | inconclusive: 18.5 µM [inhibitor, single point] |
| Cc1ccc(S(=O)(=O)NC(=O)N2CCN(Cc3c(F)cccc3Cl)CC2)cc1 | inactive |
| CC1(C)Cc2nc3sc4c(OCc5ccccc5)ncnc4c3cc2CO1 | inconclusive: 5.86 µM [inhibitor, partial curve, poor fit] |
| Cc1[nH]c(C)c(S(=O)(=O)N2CCN(c3cccc(Cl)c3)CC2)c1C(=O)N1CCCCC1 | inconclusive: 18.5 µM [inhibitor, single point] |
| Cc1cccc(C(C(=O)NC2CCCC2)N(C(=O)c2csnn2)C2CCCC2)c1 (stereo not given) | inconclusive: 1.47 µM [inhibitor, partial curve, poor fit] |
| CCN(C(=O)COC(=O)CCn1c(C)csc1=O)c1c(N)n(Cc2ccccc2)c(=O)[nH]c1=O | inconclusive: 1.04 µM [inhibitor, partial curve, poor fit] |
| CCN(CC)c1ccc(NC(=O)c2cnccn2)cc1S(=O)(=O)Nc1ccc(OC)cc1 | inconclusive: 18.5 µM [inhibitor, single point] |
| N#C/C(=C1/SCC(c2ccccc2Cl)S1)n1ccnc1 (stereo not given) | inconclusive: 12 µM [inhibitor, single point] |

— PubChem BioAssay AID504834 (National Center for Advancing Translational Sciences (NCATS), 2011)
